Test results reported in ChEMBL document CHEMBL4316593 (Eur J Med Chem, 2019).
Further values from the same series stand in other lists.

Assays:
Assay type in all cases: cell-based
Details in all cases: U-87MG ATCC
[1] = Inhibition of RTK/PI3K/AKT/mTOR signaling in human U87 cells assessed as down regulation of EMC7 gene expression at cytotoxic IC50 measured after 48 hrs relative to control
[2] = Inhibition of RTK/PI3K/AKT/mTOR signaling in human U87 cells assessed as down regulation of LAMP1 gene expression at cytotoxic IC50 measured after 48 hrs relative to control
[3] = Inhibition of RTK/PI3K/AKT/mTOR signaling in human U87 cells assessed as down regulation of ZSCAN26 gene expression at cytotoxic IC50 measured after 48 hrs relative to control
[4] = Inhibition of RTK/PI3K/AKT/mTOR signaling in human U87 cells assessed as up regulation of NR2F2 gene expression at cytotoxic IC50 measured after 48 hrs relative to control
[5] = Inhibition of RTK/PI3K/AKT/mTOR signaling in human U87 cells assessed as up regulation of transmembrane protein 9 gene expression at cytotoxic IC50 measured after 48 hrs relative to control
[6] = Inhibition of RTK/PI3K/AKT/mTOR signaling in human U87 cells assessed as up regulation of serine and arginine rich splicing factor 8 gene expression at cytotoxic IC50 measured after 48 hrs relative to control
[7] = Inhibition of RTK/PI3K/AKT/mTOR signaling in human U87 cells assessed as down regulation of CLPTM1 gene expression at cytotoxic IC50 measured after 48 hrs relative to control
[8] = Inhibition of RTK/PI3K/AKT/mTOR signaling in human U87 cells assessed as down regulation of ZNF530 gene expression at cytotoxic IC50 measured after 48 hrs relative to control
[9] = Inhibition of RTK/PI3K/AKT/mTOR signaling in human U87 cells assessed as up regulation of IARS2 gene expression at cytotoxic IC50 measured after 48 hrs relative to control
[10] = Inhibition of RTK/PI3K/AKT/mTOR signaling in human U87 cells assessed as down regulation of EFL1 gene expression at cytotoxic IC50 measured after 48 hrs relative to control
[11] = Inhibition of RTK/PI3K/AKT/mTOR signaling in human U87 cells assessed as down regulation of MDFI gene expression at cytotoxic IC50 measured after 48 hrs relative to control
[12] = Inhibition of RTK/PI3K/AKT/mTOR signaling in human U87 cells assessed as down regulation of ACAA1 gene expression at cytotoxic IC50 measured after 48 hrs relative to control
[13] = Inhibition of RTK/PI3K/AKT/mTOR signaling in human U87 cells assessed as down regulation of SIRT7 gene expression at cytotoxic IC50 measured after 48 hrs relative to control
[14] = Inhibition of RTK/PI3K/AKT/mTOR signaling in human U87 cells assessed as up regulation of DACT1 gene expression at cytotoxic IC50 measured after 48 hrs relative to control
[15] = Inhibition of RTK/PI3K/AKT/mTOR signaling in human U87 cells assessed as up regulation of cytochrome b561 gene expression at cytotoxic IC50 measured after 48 hrs relative to control
[16] = Inhibition of RTK/PI3K/AKT/mTOR signaling in human U87 cells assessed as up regulation of 7-dehydrocholesterol reductase gene expression at cytotoxic IC50 measured after 48 hrs relative to control
[17] = Inhibition of RTK/PI3K/AKT/mTOR signaling in human U87 cells assessed as down regulation of PRKAB2 gene expression at cytotoxic IC50 measured after 48 hrs relative to control
[18] = Inhibition of RTK/PI3K/AKT/mTOR signaling in human U87 cells assessed as up regulation of aldo-keto reductase family 1 member A1 gene expression at cytotoxic IC50 measured after 48 hrs relative to control
[19] = Inhibition of RTK/PI3K/AKT/mTOR signaling in human U87 cells assessed as up regulation of spermatogenesis associated serine rich 2 gene expression at cytotoxic IC50 measured after 48 hrs relative to control
[20] = Inhibition of RTK/PI3K/AKT/mTOR signaling in human U87 cells assessed as up regulation of sodium voltage-gated channel alpha subunit 5 gene expression at cytotoxic IC50 measured after 48 hrs relative to control
[21] = Inhibition of RTK/PI3K/AKT/mTOR signaling in human U87 cells assessed as up regulation of LOC728084 gene expression at cytotoxic IC50 measured after 48 hrs relative to control
[22] = Inhibition of RTK/PI3K/AKT/mTOR signaling in human U87 cells assessed as down regulation of RBM48 gene expression at cytotoxic IC50 measured after 48 hrs relative to control
[23] = Inhibition of RTK/PI3K/AKT/mTOR signaling in human U87 cells assessed as down regulation of XPO4 gene expression at cytotoxic IC50 measured after 48 hrs relative to control
[24] = Inhibition of RTK/PI3K/AKT/mTOR signaling in human U87 cells assessed as up regulation of NIMA related kinase 6 gene expression at cytotoxic IC50 measured after 48 hrs relative to control
[25] = Inhibition of RTK/PI3K/AKT/mTOR signaling in human U87 cells assessed as down regulation of CSRNP1 gene expression at cytotoxic IC50 measured after 48 hrs relative to control
[26] = Inhibition of RTK/PI3K/AKT/mTOR signaling in human U87 cells assessed as down regulation of SHMT1 gene expression at cytotoxic IC50 measured after 48 hrs relative to control
[27] = Inhibition of RTK/PI3K/AKT/mTOR signaling in human U87 cells assessed as down regulation of DRAXIN gene expression at cytotoxic IC50 measured after 48 hrs relative to control
[28] = Inhibition of RTK/PI3K/AKT/mTOR signaling in human U87 cells assessed as down regulation of RBM19 gene expression at cytotoxic IC50 measured after 48 hrs relative to control
[29] = Inhibition of RTK/PI3K/AKT/mTOR signaling in human U87 cells assessed as down regulation of LPCAT1 gene expression at cytotoxic IC50 measured after 48 hrs relative to control
[30] = Inhibition of RTK/PI3K/AKT/mTOR signaling in human U87 cells assessed as up regulation of PDX1 C-terminal inhibiting factor 1 gene expression at cytotoxic IC50 measured after 48 hrs relative to control
[31] = Inhibition of RTK/PI3K/AKT/mTOR signaling in human U87 cells assessed as up regulation of TPT1 gene expression at cytotoxic IC50 measured after 48 hrs relative to control
[32] = Inhibition of RTK/PI3K/AKT/mTOR signaling in human U87 cells assessed as down regulation of PLEKHM3 gene expression at cytotoxic IC50 measured after 48 hrs relative to control

With `CC(=O)C(=NNc1ccccc1C#N)C(C)=O` the log2FC [1] was -0.793, the log2FC [2] was -0.707 and the log2FC [3] was -1.17. For the same compound, the log2FC [4] was 0.614, the log2FC [5] was 0.752 and the log2FC [6] was 0.838. The log2FC [7] was -0.431, the log2FC [8] was -2.28 and the log2FC [9] was 0.446. For the same compound, the log2FC [10] was -1.58, the log2FC [11] was -1.08 and the log2FC [12] was -1.69. For the same compound, the log2FC [13] was -0.831, the log2FC [14] was 1.91 and the log2FC [15] was 1.35. For the same compound, the log2FC [16] was 0.745, the log2FC [17] was -0.692 and the log2FC [18] was 0.742. The log2FC [19] was 1.06, the log2FC [20] was 1.54 and the log2FC [21] was 2.84. For the same compound, the log2FC [22] was -0.973, the log2FC [23] was -0.617 and the log2FC [24] was 1.33. For the same compound, the log2FC [25] was -1.25, the log2FC [26] was -0.811 and the log2FC [27] was -1.26. For the same compound, the log2FC [28] was -0.934, the log2FC [29] was -0.689 and the log2FC [30] was 1.05. It also gave a log2FC [31] of 0.443 and a log2FC [32] of -1.
